Experimental data: patent US12568969B2, “Pyridine compounds for controlling invertebrate pests” (FMC Corporation, priority 2020, dated 2026)
Read-outs that look alike come from different tables or passages of the source. Some results were stated once for a whole list of compounds, not compound by compound. For some of these results: At least one structure is not confirmed: it was looked up by name or label, or the drawing left a doubt.

Assays:
Type in all cases: in vivo
[1] = test system: corn planthopper (Peregrinus maidis (Ashmead)); conditions: 6 days
Procedure: (§1) Test compounds were formulated using a solution containing 10% acetone, […] and 300 ppm Activator 909 non-ionic surfactant (Loveland Products, Loveland, Colorado, USA). The formulated compounds were applied in 1 mL of liquid through an atomizer nozzle positioned 1.27 cm (0.5 inches) above the top of each test unit. Test compounds were sprayed at the rates indicated, and each test was replicated three times.
For evaluating control of corn planthopper (Peregrinus maidis (Ashmead)) through contact and/or systemic means, the test unit consisted of a small open container with a 3-4-day-old corn (maize) plant inside. White sand was added to the top of the soil prior to application of the test compound.
Test compounds were formulated and sprayed at 250 and/or 50 ppm and/or 10 ppm. After spraying of the formulated test compound, the test units were allowed to dry for 1 h before they were post-infested with ˜15-20 nymphs (18-to-21-day-old). A black, screened cap was placed on the top of each test unit, and the test units were held for 6 days in a growth chamber at 22-24° C. and 50-70% relative humidity. Each test unit was then visually assessed for insect mortality.

[2] = test system: green peach aphid (Myzus persicae (Sulzer)); assay: Test D: control of green peach aphid on radish plant, spray; conditions: 6 days
Procedure: as §1
For evaluating control of green peach aphid (Myzus persicae (Sulzer)) through contact and/or systemic means, the test unit consisted of a small open container with a 12-15-day-old radish plant inside. This was pre-infested by placing on a leaf of the test plant 30-40 aphids on a piece of leaf excised from a culture plant (cut-leaf method). The aphids moved onto the test plant as the leaf piece desiccated. After pre-infestation, the soil of the test unit was covered with a layer of sand.
[…] After spraying of the formulated test compound, each test unit was allowed to dry for 1 hour and then a black, screened cap was placed on top. The test units were held for 6 days in a growth chamber at 19-21° C. and 50-70% relative humidity. Each test unit was then visually assessed for insect mortality.

[3] = test system: cotton melon aphid (Aphis gossypii (Glover)); conditions: 6 days
Procedure: as §1
[…] This was pre-infested with 30-40 insects on a piece of leaf according to the cut-leaf method, and the soil of the test unit was covered with a layer of sand.
Test compounds were formulated and sprayed at 250 and/or 50 ppm. After spraying, the test units were maintained in a growth chamber for 6 days at 19° C. and 70% relative humidity. Each test unit was then visually assessed for insect mortality.

[4] = test system: sweetpotato whitefly (Bemisia tabaci (Gennadius)); assay: Test F: control of sweetpotato whitefly on cotton plant, spray; conditions: 13 days
Procedure: as §1
For evaluating control of the sweetpotato whitefly (Bemisia tabaci (Gennadius)) through contact and/or systemic means, the test unit consisted of a small open container with a 12-14-day-old cotton plant inside. Prior to the spray application, both cotyledons were removed from the plant, leaving one true leaf for the assay. Adult whiteflies were allowed to lay eggs on the plant and then were removed from the test unit. Cotton plants infested with at least 15 eggs were submitted to the test for spraying.
Test compounds were formulated and sprayed at 250 and/or 50 ppm. After spraying, the test units were allowed to dry for 1 hour. The cylinders were then removed, and the units were taken to a growth chamber and held for 13 days at 28° C. and 50-70% relative humidity. Each test unit was then visually assessed for insect mortality.

[5] = test system: potato leafhopper (Empoasca fabae (Harris)); assay: Test C: control of potato leafhopper on Soleil bean plant, spray; conditions: sprayed at 250 ppm; 6 days
Procedure: as §1
For evaluating control of potato leafhopper (Empoasca fabae (Harris)) through contact and/or systemic means, the test unit consisted of a small open container with a 5-6-day-old Soleil bean plant (primary leaves emerged) inside. White sand was added to the top of the soil, and one of the primary leaves was excised prior to application of the test compound.
[…] After spraying of the formulated test compound, the test units were allowed to dry for 1 hour before they were post-infested with 5 potato leafhoppers (18-to-21-day-old adults). A black, screened cap was placed on the top of the test unit, and the test units were held for 6 days in a growth chamber at 20° C. and 70% relative humidity. Each test unit was then visually assessed for insect mortality.

Measured: mortality

Cc1noc(-c2cncc(F)c2C(F)c2ccc([S+]([O-])C(F)(F)F)cc2)n1 (mixture of isomers) [Compound 94]
at least 70%: [4]; sprayed at 50 ppm | [4]; sprayed at 250 ppm
at least 80%: [1]; sprayed at 10 ppm | [1]; sprayed at 50 ppm | [1]; sprayed at 250 ppm | [2]; sprayed at 50 ppm | [2]; sprayed at 250 ppm | [3]; sprayed at 50 ppm | [3]; sprayed at 250 ppm

Fc1cncc(-n2ccc(C(F)(F)F)n2)c1C(F)c1ccc(SC(F)(F)F)cc1 (racemic) [Compound 4]
at least 80%: [1]; sprayed at 250 ppm | [5]

FC(c1ccc(OC(F)(F)F)cc1)c1c(Br)cncc1-n1nc(Br)c(Br)n1 (racemic) [Compound 29]
at least 70%: [4]; sprayed at 250 ppm
at least 80%: [1]; sprayed at 50 ppm | [2]; sprayed at 50 ppm | [2]; sprayed at 250 ppm | [3]; sprayed at 50 ppm | [3]; sprayed at 250 ppm

Cc1noc(-c2cncc(F)c2C(F)c2ccc(OC(F)(F)F)cc2)n1 (racemic) [Compound 39]
at least 80%: [1]; sprayed at 50 ppm | [1]; sprayed at 250 ppm | [2]; sprayed at 50 ppm | [2]; sprayed at 250 ppm | [3]; sprayed at 50 ppm | [3]; sprayed at 250 ppm
at least 70%: [4]; sprayed at 250 ppm

COC(c1ccc(SC(F)(F)F)cc1)c1c(F)cncc1-c1noc(C)n1 (racemic) [Compound 79]
at least 80%: [1]; sprayed at 50 ppm | [1]; sprayed at 250 ppm | [2]; sprayed at 250 ppm | [3]; sprayed at 250 ppm

Cc1noc(-c2cncc(F)c2C(F)c2ccc(SC(F)(F)F)cc2)n1 (racemic) [Compound 93]
at least 80%: [1]; sprayed at 10 ppm | [1]; sprayed at 50 ppm | [1]; sprayed at 250 ppm | [2]; sprayed at 50 ppm | [2]; sprayed at 250 ppm | [3]; sprayed at 50 ppm | [3]; sprayed at 250 ppm
at least 70%: [4]; sprayed at 50 ppm | [4]; sprayed at 250 ppm

Cc1noc(-c2cncc(Cl)c2C(F)c2ccc(SC(F)(F)F)cc2)n1 (racemic) [Compound 103]
at least 80%: [1]; sprayed at 10 ppm | [1]; sprayed at 50 ppm | [1]; sprayed at 250 ppm | [2]; sprayed at 50 ppm | [2]; sprayed at 250 ppm | [3]; sprayed at 50 ppm | [3]; sprayed at 250 ppm

FC(c1ccc2c(c1)OC(F)(F)O2)c1c(Br)cncc1-n1nccn1 (stereo not shown) [Compound 147]
at least 70%: [4]; sprayed at 50 ppm | [4]; sprayed at 250 ppm
at least 80%: [1]; sprayed at 10 ppm | [1]; sprayed at 50 ppm | [1]; sprayed at 250 ppm | [2]; sprayed at 50 ppm | [2]; sprayed at 250 ppm | [3]; sprayed at 50 ppm | [3]; sprayed at 250 ppm

COC(c1ccc2c(c1)OC(F)(F)O2)c1c(F)cncc1-n1cccn1 (stereo not shown) [Compound 155]
at least 70%: [4]; sprayed at 50 ppm | [4]; sprayed at 250 ppm

Fc1cncc(-n2cccn2)c1C(F)c1ccc(C(F)(F)F)nc1 (stereo not shown) [Compound 156]
at least 70%: [4]; sprayed at 50 ppm | [4]; sprayed at 250 ppm
at least 80%: [1]; sprayed at 10 ppm | [1]; sprayed at 50 ppm | [1]; sprayed at 250 ppm | [3]; sprayed at 50 ppm | [3]; sprayed at 250 ppm

Fc1cncc(-n2nccn2)c1C(F)c1cnc(C(F)(F)F)nc1 (stereo not shown) [Compound 163]
at least 80%: [1]; sprayed at 10 ppm | [1]; sprayed at 50 ppm | [1]; sprayed at 250 ppm | [2]; sprayed at 250 ppm | [3]; sprayed at 50 ppm | [3]; sprayed at 250 ppm

CC(C)(C)c1ccc(C(F)c2c(Cl)cncc2-n2nccn2)cn1 (stereo not shown) [Compound 168]
at least 70%: [4]; sprayed at 50 ppm | [4]; sprayed at 250 ppm
at least 80%: [1]; sprayed at 50 ppm | [1]; sprayed at 250 ppm

Fc1cncc(-n2nccn2)c1C(F)c1ccc(C(F)(F)F)cn1 (stereo not shown) [Compound 172]
at least 70%: [4]; sprayed at 50 ppm | [4]; sprayed at 250 ppm
at least 80%: [1]; sprayed at 10 ppm | [1]; sprayed at 50 ppm | [1]; sprayed at 250 ppm | [3]; sprayed at 50 ppm | [3]; sprayed at 250 ppm
